Laboratory results published in PubChem BioAssay (NCATS).
Where “and” joins values, the source holds several entries; their conditions need not be identical. Identical values can stand only once. The list shows a part of the results. These are further read-outs of the screen, such as a control signal, another cell line or another target. No call is given for them. Most of these compounds were active or inconclusive in the main read-out, so they are no random draw. Potencies come from curve fits of mixed quality, noted in brackets.

Assay: qHTS for identification of novel therapeutic agents for treatment of microphthalmiaassociated transcription factor (MiT) renal cell carcinoma (RCC) (AID 1963991)
Conditions: CellTiter-Glo, 48 h; for z-score: stronger effect = lower value
How it was run: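 UOK109/UOK124/UOK145 (TFE3 fusions, three partners); 500 cells/well; MIPE v4.0, 1912 cpds, 11 conc.; 48 h, 37 C; CellTiter-Glo, 15 min RT; lum. Norm.: DMSO 100%, empty 0%.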

[1] = TFE3-RCC UOK109 viability, measured here: UOK109 Z-AUC
[2] = TFE3-RCC viability, measured here: UOK124 Z-AUC
[3] = TFE3-RCC viability, measured here: UOK145 Z-AUC
[4] = TFE3-RCC viability, measured here: UOK145 cell viability
[5] = TFE3-RCC viability, measured here: UOK124 cell viability

| SMILES | z-score [1] | z-score [2] | z-score [3] | AC50 [4] | AC50 [5] |
| --- | --- | --- | --- | --- | --- |
| Cc1nc(C(=O)NCC(=O)O)c(O)c2ccc(Oc3ccccc3)cc12 | 0.528 | 0.524 | 0.485 | 1.05 µM [falling, partial curve, poor fit] | – |
| CC(=O)O[C@]1(C(C)=O)CC[C@H]2[C@@H]3C=C(Cl)C4=CC(=O)[C@@H]5C[C@H]5[C@]4(C)[C@@H]3CC[C@@]21C | -1.46 | 0.662 | 0.193 | 33.2 µM [falling, single point] | – |
| NC(=O)c1ncn([C@@H]2O[C@H](CO)[C@@H](O)[C@@H]2O)n1 | 0.958 | 0.851 | 1.42 | 20.9 µM [falling, partial curve] | – |
| C[C@@H](NC(=O)c1ncnc(N)c1Cl)c1ncc(C(=O)Nc2cc(C(F)(F)F)c(Cl)cn2)s1 | 0.677 | 0.695 | 0.752 | 18.7 µM [falling, partial curve, poor fit] | – |
| CCN1CCN(c2ccc(Nc3cc(N(C)C(=O)Nc4c(Cl)c(OC)cc(OC)c4Cl)ncn3)cc2)CC1 | 0.581 | -0.21 | 0.604 | 8.33 µM [falling, partial curve, poor fit] | – |
| O=S(=O)(N=Cc1c(O)ccc2ccccc12)c1cccs1 | 0.337 | -0.487 | -0.384 | 5.9 µM [falling, full curve] | – |
| CN1C(C(=O)Nc2ccccn2)=C(O)c2sc(Cl)cc2S1(=O)=O | 0.747 | 0.348 | 0.163 | 10.5 µM [falling, partial curve] | – |
| Cc1ccc([C@@H]2O[C@H](CO)[C@@H](O)[C@H](O)[C@@H]2O)cc1Cc1ccc(-c2ccc(F)cc2)s1 | 0.469 | 0.723 | 0.576 | – | 26.4 µM [falling, single point] |
| CON=C(C(=O)N[C@@H]1C(=O)N2C(C(=O)OCOC(=O)C(C)(C)C)=C(C=Cc3scnc3C)CS[C@H]12)c1csc(N)n1 | 1.16 | 0.677 | -0.0549 | 0.0235 µM [rising, full curve] | – |
| CC1(C)O[C@@H]2C[C@@H]3[C@H]4C[C@@H](F)C5=CC(=O)C=C[C@]5(C)[C@@]4(F)[C@@H](O)C[C@]3(C)[C@]2(C(=O)CO)O1 | 0.513 | 0.596 | 2.2 | 1.05 µM [falling, partial curve, poor fit] | – |
| CC(C)(F)C[C@H](N[C@@H](c1ccc(-c2ccc(S(C)(=O)=O)cc2)cc1)C(F)(F)F)C(=O)NC1(C#N)CC1 | -1.3 | 0.497 | -0.817 | 0.132 µM [rising, full curve, poor fit] | – |
| C[C@@H]1CC=CC=CC=CC=C[C@@H](O[C@@H]2O[C@H](C)[C@@H](O)[C@H](N)[C@H]2O)C[C@@H]2O[C@](O)(C[C@@H](O)C[C@@H]3O[C@@H]3C=CC(=O)O1)C[C@H](O)[C@@H]2C(=O)O | 0.549 | 0.422 | 0.448 | 7.43 µM [falling, full curve] | – |
| CC(C)(C(=O)NCC(F)(F)C(F)(F)F)C(=O)N[C@@H]1C(=O)Nc2ccccc2-c2ccccc21 | -0.456 | -2.85 | 0.154 | 8.33 µM [falling, partial curve] | – |
| CC(C=CC1=C(C)CCCC1(C)C)=CC=CC(C)=CC(=O)O | 0.185 and -0.121 | 0.499 and 0.972 | -0.514 and 0.196 | 33.2 µM [falling, single point] and 20.9 µM [falling, partial curve, poor fit] | – |
| C[C@@H](NCc1cc2ccccc2[nH]1)c1cccc2ccccc12 | 0.486 | 0.198 | 0.146 | – | 0.00105 µM [rising, full curve, poor fit] |
| CN(C)N=Nc1nc[nH]c1C(N)=O | 0.825 | 2.2 | 1.14 | – | 0.0332 µM [rising, full curve] |
| Cc1coc2c1C(=O)C(=O)c1c-2ccc2c(C)cccc12 | 0.86 | 0.193 | -0.379 | – | 1.32 µM [falling, full curve, poor fit] |
| C[C@H](CCC(=O)O)[C@H]1CC[C@H]2[C@H]3[C@@H](CC[C@]12C)[C@@]1(C)CC[C@@H](O)C[C@H]1C[C@@H]3O | 0.00683 | 0.504 | 0.48 | 13.2 µM [falling, partial curve, poor fit] | – |
| CCOC(=O)N[C@@H]1CC[C@@H]2[C@@H](C1)C[C@H]1C(=O)O[C@H](C)[C@H]1[C@@H]2C=Cc1ccc(-c2cccc(F)c2)cn1 | 0.588 | 0.765 | 0.582 | 37.2 µM [falling, partial curve, poor fit] | – |
| COc1ccc(CCC(=O)c2c(O)cc(O[C@@H]3O[C@H](CO)[C@@H](O)[C@H](O)[C@@H]3O[C@@H]3O[C@@H](C)[C@H](O)[C@@H](O)[C@@H]3O)cc2O)cc1O | -0.193 | 0.767 | 0.27 | 18.7 µM [falling, partial curve] | – |
| CN[C@@H](C)[C@H]1[C@H](O)C[C@@]2(C)[C@@H]3CC[C@H]4C(C)(C)[C@@H](NC)CC[C@@]45C[C@@]35CC[C@]12C | 0.218 | 0.226 | 0.312 | 23.5 µM [falling, partial curve, poor fit] | – |
| CC=CC[C@@H](C)C(=O)[C@H]1C(=O)N[C@@H](C(C)C)C(=O)N(C)CC(=O)N(C)[C@@H](CC(C)C)C(=O)N[C@@H](C(C)C)C(=O)N(C)[C@@H](CC(C)C)C(=O)N[C@@H](C)C(=O)N[C@H](C)C(=O)N(C)[C@@H](CC(C)C)C(=O)N(C)[C@@H](CC(C)C)C(=O)N(C)[C@@H](C(C)C)C(=O)N1C | 0.434 | 0.27 | 0.00707 | – | 7.43 µM [falling, full curve] |
| CCNC(=O)Nc1ccc(Oc2ncnc(N)c2C=NOC)cc1Cl | 0.293 | 0.11 | 0.358 | 23.5 µM [falling, single point] | – |
| CC(=O)OC1C(C)OC(Oc2c(-c3ccc(O)cc3)oc3cc(O)cc(O)c3c2=O)C(O)C1OC(C)=O (centres undefined) | -0.0661 | -0.252 | 1.1 | 16.6 µM [falling, partial curve, poor fit] | – |
| CN(C)CCOc1ccc(C(=C(CCCl)c2ccccc2)c2ccccc2)cc1 | 0.245 | 0.0123 | 0.4 | 16.6 µM [falling, partial curve, poor fit] | – |
| Cc1ccc(-n2nc(C(C)(C)C)cc2NC(=O)Nc2ccc(OCCN3CCOCC3)c3ccccc23)cc1 | -0.000275 | 0.288 | 0.0548 | 18.7 µM [falling, partial curve] | – |
